Literature values, collected in patent US20160051706A1, “PROCESS FOR PRODUCING A COMPLEX OF A LANTHANIDE WITH A MACROCYCLIC LIGAND” (AGFA HEALTHCARE, priority 2013, published 2016).
Some of these results come from one statement about several compounds together. For at least one compound, name, drawing or mass did not settle the structure.

Conditions: free ligand more toxic than X[X'; cited from earlier work

| Structure (SMILES) | Toxicity (LD50 values) of the free macrocyclic ligand relative to the same macrocycle under the form X[X', L] |
| --- | --- |
| O=C(O)CN1CCNCCN(CC(=O)O)CCN(CC(=O)O)CC1 [DO3A, 1,4,7,10-Tetraazacyclododecane-1,4,7-triacetic acid] | at least 10 times |
| O=C(O)CN1CCN(CC(=O)O)CCN(CC(=O)O)CCN(CC(=O)O)CC1 [DOTA, 1,4,7,10-tetraazacyclododecane-1,4,7,10-tetraacetic acid] | at least 10 times |
| CC(O)CN1CCN(CC(=O)O)CCN(CC(=O)O)CCN(CC(=O)O)CC1 (stereo not drawn) [HP-DO3A, 1,4,7,10-Tetraazacyclododecane-1,4,7-triacetic acid, 10-(2-hydroxypropyl)] | at least 10 times |
